From article PMC11130328
These are yes or no findings as the source states them, for the method shown. For part of these data: A result given as binding can be weak or reduced; the word gives no strength. Sequences can lack the tags named with a protein. For part of these data: In cells and extracts the contact can be indirect. Values belong to the molecule of their own block, whether it stands above or below them.

The chains behind the UniProt entries cited, without tags or fusion partners. Where a name states a change or a piece, a line headed by the entry shows the natural chain unless it says otherwise.
UniProt Q6F368: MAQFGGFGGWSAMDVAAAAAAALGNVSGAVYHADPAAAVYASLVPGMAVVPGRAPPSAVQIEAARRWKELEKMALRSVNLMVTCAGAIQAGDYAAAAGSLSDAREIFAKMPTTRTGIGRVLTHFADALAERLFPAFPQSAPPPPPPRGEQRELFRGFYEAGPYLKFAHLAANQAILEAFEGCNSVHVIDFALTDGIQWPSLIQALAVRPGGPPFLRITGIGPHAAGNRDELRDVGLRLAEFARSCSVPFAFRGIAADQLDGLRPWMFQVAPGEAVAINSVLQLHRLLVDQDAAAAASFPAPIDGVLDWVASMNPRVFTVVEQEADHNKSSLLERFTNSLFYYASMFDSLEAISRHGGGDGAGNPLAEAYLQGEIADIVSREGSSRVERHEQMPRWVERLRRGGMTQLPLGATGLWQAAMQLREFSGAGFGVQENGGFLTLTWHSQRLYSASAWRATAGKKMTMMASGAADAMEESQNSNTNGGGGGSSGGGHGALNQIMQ

Experiments:
[1] = molecular target: T1, NF-YB1-cLUC (rice) (UniProt Q6Z348); assay: split reporter; split luciferase complementation assay (SLCA) in agroinfiltrated Nicotiana benthamiana leaves, about 36 h after infiltration, CCD camera
T1 sequence: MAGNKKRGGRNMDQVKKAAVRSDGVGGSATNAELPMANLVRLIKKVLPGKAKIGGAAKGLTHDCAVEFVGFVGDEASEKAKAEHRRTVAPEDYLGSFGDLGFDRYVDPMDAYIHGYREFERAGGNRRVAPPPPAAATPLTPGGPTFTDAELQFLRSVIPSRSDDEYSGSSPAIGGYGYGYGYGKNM

[2] = molecular target: T2, NF-YB1-MYC protein (wheat germ expression system) (rice) (UniProt Q6Z348); assay: pull-down; purified recombinant MYC-NF-YB1 used to pull down Flag-tagged protein with amylose beads; proteins from the wheat germ expression system; immunoblot with anti-MYC and anti-Flag; only the target purified
T2 sequence: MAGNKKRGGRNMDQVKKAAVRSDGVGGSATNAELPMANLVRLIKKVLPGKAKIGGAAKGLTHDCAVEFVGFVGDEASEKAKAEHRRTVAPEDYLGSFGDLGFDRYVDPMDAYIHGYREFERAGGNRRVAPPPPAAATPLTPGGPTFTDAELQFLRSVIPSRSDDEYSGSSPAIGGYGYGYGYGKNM

[3] = molecular target: NF-YC12, yeast two-hybrid fusion (rice); assay: two-hybrid; pairwise; pGADT7 (AD) and pGBKT7 (BD) fusions co-transformed into yeast AH109; selection on SD/-Leu-Trp-His with 3-AT (25 mM 3AT in Fig. 2a), 30 °C
[4] = molecular target: SLR1-like2 (SLRL2), BD fusion for yeast two-hybrid (rice) (UniProt Q6F368); assay: as above
[5] = molecular target: SLRL2 section C3 (PFYRE domain), yeast two-hybrid fusion (rice); assay: as above
[6] = molecular target: SLRL2-Flag (rice protoplasts) (rice); assay: co-IP; SLRL2-Flag and NF-YB1-Myc transiently co-expressed in rice protoplasts; total protein precipitated with anti-Flag beads; blot with anti-Myc and anti-Flag
[7] = molecular target: SLRL2-nLUC (rice); assay: split reporter; split luciferase complementation assay (SLCA) in agroinfiltrated Nicotiana benthamiana leaves, about 36 h after infiltration, CCD camera
[8] = molecular target: SLRL2-nYFP (rice); assay: split reporter; BiFC (split YFP) in rice protoplasts, overnight at 25 °C in the dark, confocal microscopy

binding [1]: binds
Molecule: NF-YC12, split luciferase fusion (rice)

binding [2]: no binding
Molecule: bHLH144-Flag protein (rice)

binding [3]: binds
binding [4]: binds
B1: NF-YB1 fragment (32-186aa), yeast two-hybrid fusion (domain or fragment, UniProt Q6Z348 32-186)
chain: AELPMANLVRLIKKVLPGKAKIGGAAKGLTHDCAVEFVGFVGDEASEKAKAEHRRTVAPEDYLGSFGDLGFDRYVDPMDAYIHGYREFERAGGNRRVAPPPPAAATPLTPGGPTFTDAELQFLRSVIPSRSDDEYSGSSPAIGGYGYGYGYGKNM

binding [4]: binds
binding [5]: binds
B2: NF-YB1, AD fusion for yeast two-hybrid (protein, UniProt Q6Z348 1-186)
chain: MAGNKKRGGRNMDQVKKAAVRSDGVGGSATNAELPMANLVRLIKKVLPGKAKIGGAAKGLTHDCAVEFVGFVGDEASEKAKAEHRRTVAPEDYLGSFGDLGFDRYVDPMDAYIHGYREFERAGGNRRVAPPPPAAATPLTPGGPTFTDAELQFLRSVIPSRSDDEYSGSSPAIGGYGYGYGYGKNM

binding [6]: binds
B3: NF-YB1-MYC (rice protoplasts) (protein, UniProt Q6Z348 1-186)
chain: MAGNKKRGGRNMDQVKKAAVRSDGVGGSATNAELPMANLVRLIKKVLPGKAKIGGAAKGLTHDCAVEFVGFVGDEASEKAKAEHRRTVAPEDYLGSFGDLGFDRYVDPMDAYIHGYREFERAGGNRRVAPPPPAAATPLTPGGPTFTDAELQFLRSVIPSRSDDEYSGSSPAIGGYGYGYGYGKNM

binding [7]: binds
B4: NF-YB1-cLUC (protein, UniProt Q6Z348 1-186)
chain: MAGNKKRGGRNMDQVKKAAVRSDGVGGSATNAELPMANLVRLIKKVLPGKAKIGGAAKGLTHDCAVEFVGFVGDEASEKAKAEHRRTVAPEDYLGSFGDLGFDRYVDPMDAYIHGYREFERAGGNRRVAPPPPAAATPLTPGGPTFTDAELQFLRSVIPSRSDDEYSGSSPAIGGYGYGYGYGKNM

binding [8]: binds
B5: NF-YB1-cYFP (protein, UniProt Q6Z348 1-186)
chain: MAGNKKRGGRNMDQVKKAAVRSDGVGGSATNAELPMANLVRLIKKVLPGKAKIGGAAKGLTHDCAVEFVGFVGDEASEKAKAEHRRTVAPEDYLGSFGDLGFDRYVDPMDAYIHGYREFERAGGNRRVAPPPPAAATPLTPGGPTFTDAELQFLRSVIPSRSDDEYSGSSPAIGGYGYGYGYGKNM
